Measured values reported in patent US7611696B2, “Sunscreen compositions as well as dihydropyridines and dihydropyranes” (DSM IP Assets B.V., priority 2002, dated 2009).
For at least one compound, name, drawing or mass did not settle the structure.

Assay: UV absorption (λmax and ε) of the prepared UV-A screening compounds
Format: physicochemical
Settings: extinction coefficient at the UV absorption maximum; solvent not stated

With CCOC(=O)C(C#N)=C1C=C(C)OC(C)=C1 [Example 1, ethyl (2,6-dimethyl-pyran-4-ylidene) cyanoacetate] the “ε (at λmax)” value was 24′982.
